# Test results: patent US6906179
# The chains behind the UniProt entries cited, without tags or fusion partners. Where a name states a change or a piece, a line headed by the entry shows the natural chain unless it says otherwise. A line that says so, or that is headed by a name, gives the form on record, which may keep a tag or linker. Residues count along the entry.
# UniProt P84022: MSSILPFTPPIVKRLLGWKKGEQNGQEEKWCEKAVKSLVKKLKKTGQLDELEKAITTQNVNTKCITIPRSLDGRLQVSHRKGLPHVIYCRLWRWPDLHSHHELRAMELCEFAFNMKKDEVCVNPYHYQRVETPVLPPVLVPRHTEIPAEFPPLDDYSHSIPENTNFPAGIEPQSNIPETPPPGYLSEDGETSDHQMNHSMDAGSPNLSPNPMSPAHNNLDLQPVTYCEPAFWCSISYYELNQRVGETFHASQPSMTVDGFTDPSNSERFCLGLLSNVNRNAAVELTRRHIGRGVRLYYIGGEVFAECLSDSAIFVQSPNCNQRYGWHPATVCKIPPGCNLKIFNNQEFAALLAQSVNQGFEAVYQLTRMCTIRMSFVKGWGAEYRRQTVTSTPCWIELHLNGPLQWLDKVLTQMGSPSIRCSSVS
# UniProt P0A7C2: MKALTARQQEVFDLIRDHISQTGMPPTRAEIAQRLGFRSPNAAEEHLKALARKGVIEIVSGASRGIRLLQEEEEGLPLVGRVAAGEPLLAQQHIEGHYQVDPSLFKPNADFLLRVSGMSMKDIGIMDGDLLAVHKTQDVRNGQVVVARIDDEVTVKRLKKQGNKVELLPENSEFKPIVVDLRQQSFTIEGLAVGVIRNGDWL
# UniProt P28070: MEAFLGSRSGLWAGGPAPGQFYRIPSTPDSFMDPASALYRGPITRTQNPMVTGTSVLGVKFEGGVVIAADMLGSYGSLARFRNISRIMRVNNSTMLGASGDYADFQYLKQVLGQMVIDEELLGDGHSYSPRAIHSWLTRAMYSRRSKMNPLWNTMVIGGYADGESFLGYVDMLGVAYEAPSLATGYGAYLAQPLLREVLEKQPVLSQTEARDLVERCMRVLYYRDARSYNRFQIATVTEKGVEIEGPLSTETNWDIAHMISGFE
# UniProt P54368, residues 101-228: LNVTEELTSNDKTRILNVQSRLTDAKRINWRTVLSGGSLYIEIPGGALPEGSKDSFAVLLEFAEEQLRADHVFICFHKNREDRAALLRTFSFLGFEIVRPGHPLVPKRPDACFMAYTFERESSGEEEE
# Hn RNP core protein A1 (P09651, form named): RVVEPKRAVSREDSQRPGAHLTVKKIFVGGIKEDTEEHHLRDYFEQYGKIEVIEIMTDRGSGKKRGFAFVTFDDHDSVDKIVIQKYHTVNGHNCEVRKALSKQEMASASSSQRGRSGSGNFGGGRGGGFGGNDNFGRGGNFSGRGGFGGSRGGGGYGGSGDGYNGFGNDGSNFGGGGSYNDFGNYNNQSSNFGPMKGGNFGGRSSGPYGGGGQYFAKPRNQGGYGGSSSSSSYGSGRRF
# UniProt Q15797: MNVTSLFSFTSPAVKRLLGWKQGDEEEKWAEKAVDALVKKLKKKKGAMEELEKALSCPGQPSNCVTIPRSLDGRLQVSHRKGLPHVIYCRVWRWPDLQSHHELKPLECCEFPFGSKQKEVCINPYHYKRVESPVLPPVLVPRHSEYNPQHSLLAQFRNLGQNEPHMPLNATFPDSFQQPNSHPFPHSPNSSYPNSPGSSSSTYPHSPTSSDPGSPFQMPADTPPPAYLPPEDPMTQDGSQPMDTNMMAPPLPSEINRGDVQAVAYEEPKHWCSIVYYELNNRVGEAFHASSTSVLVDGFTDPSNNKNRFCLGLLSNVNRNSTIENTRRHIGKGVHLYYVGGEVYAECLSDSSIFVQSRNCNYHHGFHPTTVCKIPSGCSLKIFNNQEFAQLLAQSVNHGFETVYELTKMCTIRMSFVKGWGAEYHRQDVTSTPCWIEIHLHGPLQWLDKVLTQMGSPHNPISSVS
# UniProt Q13485, residues 323-552: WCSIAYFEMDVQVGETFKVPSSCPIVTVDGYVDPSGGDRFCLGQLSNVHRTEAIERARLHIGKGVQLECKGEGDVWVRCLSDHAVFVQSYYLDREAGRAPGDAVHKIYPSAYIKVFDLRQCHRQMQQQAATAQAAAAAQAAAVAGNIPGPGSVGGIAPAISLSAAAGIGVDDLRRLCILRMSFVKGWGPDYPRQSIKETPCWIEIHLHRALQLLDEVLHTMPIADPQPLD
# UniProt P36897: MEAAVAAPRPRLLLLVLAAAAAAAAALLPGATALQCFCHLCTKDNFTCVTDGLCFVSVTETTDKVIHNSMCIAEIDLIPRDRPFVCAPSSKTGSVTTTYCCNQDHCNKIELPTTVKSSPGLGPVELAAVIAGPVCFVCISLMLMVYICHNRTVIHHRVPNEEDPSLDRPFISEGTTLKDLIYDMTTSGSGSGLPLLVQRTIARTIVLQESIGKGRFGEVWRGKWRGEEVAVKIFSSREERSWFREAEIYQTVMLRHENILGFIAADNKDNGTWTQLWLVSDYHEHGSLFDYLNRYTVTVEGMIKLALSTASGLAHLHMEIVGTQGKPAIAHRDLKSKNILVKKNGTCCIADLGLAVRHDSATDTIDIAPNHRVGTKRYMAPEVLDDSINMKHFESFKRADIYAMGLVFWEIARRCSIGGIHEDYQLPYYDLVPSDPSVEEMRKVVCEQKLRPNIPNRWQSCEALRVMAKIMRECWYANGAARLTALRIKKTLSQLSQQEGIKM
# UniProt P09234: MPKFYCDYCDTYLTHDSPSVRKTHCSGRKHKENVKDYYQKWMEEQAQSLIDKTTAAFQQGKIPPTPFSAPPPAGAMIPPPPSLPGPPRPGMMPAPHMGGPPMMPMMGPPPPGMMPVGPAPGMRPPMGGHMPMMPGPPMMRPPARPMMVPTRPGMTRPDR
# UniProt P06733, residues 230-434: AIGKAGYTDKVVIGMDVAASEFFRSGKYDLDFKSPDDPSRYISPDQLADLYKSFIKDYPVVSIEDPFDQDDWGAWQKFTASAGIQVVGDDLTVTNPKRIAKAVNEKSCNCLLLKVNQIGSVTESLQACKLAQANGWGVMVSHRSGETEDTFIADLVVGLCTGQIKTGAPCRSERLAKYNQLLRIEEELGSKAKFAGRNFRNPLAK
# No constants are given. Whether binding was seen depends on the method and setting. Some binding calls cover weakened binding; strength is not graded here.
# Tests used:
# Smad3 [1] = biological target: Smad3 (UniProt P84022); experiment: yeast two-hybrid; list of Smad3 interactors
# [2] = biological target: LexA-Smad1 (full length Smad1 fused in frame to the LexA DNA binding domain (1-202) in pEG202) (UniProt P0A7C2); experiment: yeast two-hybrid; list of Smad1 interactors
# HsN3 (human) [3] = biological target: HsN3 (human) (UniProt P28070); experiment: list of HsN3 interactors; method not detailed
# ornithine decarboxylase = biological target: T1, ornithine decarboxylase (UniProt P11926); experiment: yeast two-hybrid
# T1 sequence (looked up): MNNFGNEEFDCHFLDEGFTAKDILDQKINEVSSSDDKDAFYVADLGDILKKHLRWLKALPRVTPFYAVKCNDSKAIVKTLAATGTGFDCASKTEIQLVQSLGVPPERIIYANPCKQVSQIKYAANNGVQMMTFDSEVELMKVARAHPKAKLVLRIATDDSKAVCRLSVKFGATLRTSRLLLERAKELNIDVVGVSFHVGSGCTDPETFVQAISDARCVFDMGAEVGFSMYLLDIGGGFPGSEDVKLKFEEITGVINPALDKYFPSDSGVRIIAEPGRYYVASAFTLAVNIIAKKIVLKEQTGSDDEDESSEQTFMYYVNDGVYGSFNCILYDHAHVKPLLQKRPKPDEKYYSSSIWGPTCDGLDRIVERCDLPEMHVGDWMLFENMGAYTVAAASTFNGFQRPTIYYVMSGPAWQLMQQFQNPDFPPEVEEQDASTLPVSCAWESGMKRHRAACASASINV
# HsN3 (human) [4] = biological target: HsN3 (human) (UniProt P28070); experiment: method not detailed
# Smad3 [5] = biological target: Smad3 (UniProt P84022); experiment: mammalian cells (data not shown)
# [6] = biological target: LexA-Smad1 (full length Smad1 fused in frame to the LexA DNA binding domain (1-202) in pEG202) (UniProt P0A7C2); experiment: yeast two-hybrid screen, LexA-Smad1 bait
# antizyme (human) = antizyme (human) (UniProt P54368); experiment: list of antizyme interactors; yeast two-hybrid (FIG. 30)
Substance,binding (Smad3 [1]),binding [2],binding (HsN3 (human) [3]),further results
Hn RNP core protein A1 (from UniProt P09651 82-320),binds,,,
Smad1 (from UniProt Q15797 1-465),binds,,,
Smad3 (from UniProt P84022 1-425),,binds,,
Smad3C (aa 231-424) (from UniProt P84022 231-424),,,binds,
Smad4 MH2 domain (from UniProt Q13485 323-552),,,binds,
The complex of type I and type II receptors of TGF-β (from UniProt P36897 34-503; P37173 23-567),,,binds,
U1 SnRNP C (from UniProt P09234 1-159),binds,binds,,
antizyme (from UniProt P54368 101-228),binds,binds,binds,binding (ornithine decarboxylase): binds; binding (HsN3 (human) [4]): binds; binding (Smad3 [5]): binds; binding [6]: binds; binding (antizyme (human)): binds
"enolase, clones S1+14 and S1+37 (from UniProt P06733 230-434) (enzyme)",,binds,binds,binding (antizyme (human)): binds
